Results on eight molecules are retold here after article PMC7594058.

The chains behind the UniProt entries cited, without tags or fusion partners.
UniProt P03072: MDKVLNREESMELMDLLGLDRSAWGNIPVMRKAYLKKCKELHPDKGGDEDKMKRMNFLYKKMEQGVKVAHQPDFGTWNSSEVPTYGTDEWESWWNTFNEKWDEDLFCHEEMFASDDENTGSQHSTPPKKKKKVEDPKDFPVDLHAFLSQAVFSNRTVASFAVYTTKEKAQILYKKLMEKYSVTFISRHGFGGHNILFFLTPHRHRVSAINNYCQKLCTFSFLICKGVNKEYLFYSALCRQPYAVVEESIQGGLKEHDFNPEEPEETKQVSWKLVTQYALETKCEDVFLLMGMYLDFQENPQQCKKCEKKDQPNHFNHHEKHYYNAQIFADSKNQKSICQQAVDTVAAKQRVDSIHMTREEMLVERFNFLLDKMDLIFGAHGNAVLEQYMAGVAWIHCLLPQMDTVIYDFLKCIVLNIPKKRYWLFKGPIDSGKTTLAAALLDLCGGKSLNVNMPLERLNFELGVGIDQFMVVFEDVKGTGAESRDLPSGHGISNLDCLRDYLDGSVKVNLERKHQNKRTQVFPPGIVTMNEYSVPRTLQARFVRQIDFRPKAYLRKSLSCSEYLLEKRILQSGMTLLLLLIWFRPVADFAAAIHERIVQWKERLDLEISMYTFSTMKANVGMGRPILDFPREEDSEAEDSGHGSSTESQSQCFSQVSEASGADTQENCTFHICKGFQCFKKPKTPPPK

Sequences and labels used below:
B1: Unconventional myosin-Id (protein, UniProt O94832 1-1006)
chain: MAEQESLEFGKADFVLMDTVSMPEFMANLRLRFEKGRIYTFIGEVVVSVNPYKLLNIYGRDTIEQYKGRELYERPPHLFAIADAAYKAMKRRSKDTCIVISGESGAGKTEASKYIMQYIAAITNPSQRAEVERVKNMLLKSNCVLEAFGNAKTNRNDNSSRFGKYMDINFDFKGDPIGGHINNYLLEKSRVIVQQPGERSFHSFYQLLQGGSEQMLRSLHLQKSLSSYNYIHVGAQLKSSINDAAEFRVVADAMKVIGFKPEEIQTVYKILAAILHLGNLKFVVDGDTPLIENGKVVSIIAELLSTKTDMVEKALLYRTVATGRDIIDKQHTEQEASYGRDAFAKAIYERLFCWIVTRINDIIEVKNYDTTIHGKNTVIGVLDIYGFEIFDNNSFEQFCINYCNEKLQQLFIQLVLKQEQEEYQREGIPWKHIDYFNNQIIVDLVEQQHKGIIAILDDACMNVGKVTDEMFLEALNSKLGKHAHFSSRKLCASDKILEFDRDFRIRHYAGDVVYSVIGFIDKNKDTLFQDFKRLMYNSSNPVLKNMWPEGKLSITEVTKRPLTAATLFKNSMIALVDNLASKEPYYVRCIKPNDKKSPQIFDDERCRHQVEYLGLLENVRVRRAGFAFRQTYEKFLHRYKMISEFTWPNHDLPSDKEAVKKLIERCGFQDDVAYGKTKIFIRTPRTLFTLEELRAQMLIRIVLFLQKVWRGTLARMRYKRTKAALTIIRYYRRYKVKSYIHEVARRFHGVKTMRDYGKHVKWPSPPKVLRRFEEALQTIFNRWRASQLIKSIPASDLPQVRAKVAAVEMLKGQRADLGLQRAWEGNYLASKPDTPQTSGTFVPVANELKRKDKYMNVLFSCHVRKVNRFSKVEDRAIFVTDRHLYKMDPTKQYKVMKTIPLYNLTGLSVSNGKDQLVVFHTKDNKDLIVCLFSKQPTHESRIGELVGVLVNHFKSEKRHLQVNVTNPVQCSLHGKKCTVSVETRLNQPQPDFTKNRSGFILSVPGN
B2: NACHT, LRR and PYD domains-containing protein 2 (protein, UniProt Q9NX02 1-1062)
chain: MVSSAQMGFNLQALLEQLSQDELSKFKYLITTFSLAHELQKIPHKEVDKADGKQLVEILTTHCDSYWVEMASLQVFEKMHRMDLSERAKDEVREAALKSFNKRKPLSLGITRKERPPLDVDEMLERFKTEAQAFTETKGNVICLGKEVFKGKKPDKDNRCRYILKTKFREMWKSWPGDSKEVQVMAERYKMLIPFSNPRVLPGPFSYTVVLYGPAGLGKTTLAQKLMLDWAEDNLIHKFKYAFYLSCRELSRLGPCSFAELVFRDWPELQDDIPHILAQARKILFVIDGFDELGAAPGALIEDICGDWEKKKPVPVLLGSLLNRVMLPKAALLVTTRPRALRDLRILAEEPIYIRVEGFLEEDRRAYFLRHFGDEDQAMRAFELMRSNAALFQLGSAPAVCWIVCTTLKLQMEKGEDPVPTCLTRTGLFLRFLCSRFPQGAQLRGALRTLSLLAAQGLWAQTSVLHREDLERLGVQESDLRLFLDGDILRQDRVSKGCYSFIHLSFQQFLTALFYTLEKEEEEDRDGHTWDIGDVQKLLSGVERLRNPDLIQAGYYSFGLANEKRAKELEATFGCRMSPDIKQELLRCDISCKGGHSTVTDLQELLGCLYESQEEELVKEVMAQFKEISLHLNAVDVVPSSFCVKHCRNLQKMSLQVIKENLPENVTASESDAEVERSQDDQHMLPFWTDLCSIFGSNKDLMGLAINDSFLSASLVRILCEQIASDTCHLQRVVFKNISPADAHRNLCLALRGHKTVTYLTLQGNDQDDMFPALCEVLRHPECNLRYLGLVSCSATTQQWADLSLALEVNQSLTCVNLSDNELLDEGAKLLYTTLRHPKCFLQRLSLENCHLTEANCKDLAAVLVVSRELTHLCLAKNPIGNTGVKFLCEGLRYPECKLQTLVLWNCDITSDGCCDLTKLLQEKSSLLCLDLGLNHIGVKGMKFLCEALRKPLCNLRCLWLWGCSIPPFSCEDLCSALSCNQSLVTLDLGQNPLGSSGVKMLFETLTCSSGTLRTLRLKIDDFNDELNKLLEEIEEKNPQLIIDTEKHHPWAERPSSHDFMI
B3: Carnosine N-methyltransferase (protein, UniProt Q8N4J0 1-409)
chain: MQRRRRPPPPTSRLPEGCGGGGGGSEEVEVQFSAGRWGSAAAVSAAAAAATRSTEEEEERLEREHFWKIINAFRYYGTSMHERVNRTERQFRSLPANQQKLLPQFLLHLDKIRKCIDHNQEILLTIVNDCIHMFENKEYGEDGNGKIMPASTFDMDKLKSTLKQFVRDWSETGKAERDACYQPIIKEILKNFPKERWDPSKVNILVPGAGLGRLAWEIAMLGYACQGNEWSFFMLFSSNFVLNRCSEINKYKLYPWIHQFSNNRRSADQIRPIFFPDVDPHSLPPGSNFSMTAGDFQEIYSECNTWDCIATCFFIDTAHNVIDYIDTIWKILKPGGIWINLGPLLYHFENLANELSIELSYEDIKNVVLQYGFKVEVEKESVLSTYTVNDLSMMKYYYECVLFVVRKPQ
B4: Tropomodulin-3 (protein, UniProt Q9NYL9 1-352)
chain: MALPFRKDLEKYKDLDEDELLGNLSETELKQLETVLDDLDPENALLPAGFRQKNQTSKSTTGPFDREHLLSYLEKEALEHKDREDYVPYTGEKKGKIFIPKQKPVQTFTEEKVSLDPELEEALTSASDTELCDLAAILGMHNLITNTKFCNIMGSSNGVDQEHFSNVVKGEKILPVFDEPPNPTNVEESLKRTKENDAHLVEVNLNNIKNIPIPTLKDFAKALETNTHVKCFSLAATRSNDPVATAFAEMLKVNKTLKSLNVESNFITGVGILALIDALRDNETLAELKIDNQRQQLGTAVELEMAKMLEENTNILKFGYQFTQQGPRTRAANAITKNNDLVRKRRVEGDHQ
B5: Serine/threonine-protein phosphatase 4 regulatory subunit 2 (protein, UniProt Q9NY27 1-417)
chain: MDVERLQEALKDFEKRGKKEVCPVLDQFLCHVAKTGETMIQWSQFKGYFIFKLEKVMDDFRTSAPEPRGPPNPNVEYIPFDEMKERILKIVTGFNGIPFTIQRLCELLTDPRRNYTGTDKFLRGVEKNVMVVSCVYPSSEKNNSNSLNRMNGVMFPGNSPSYTERSNINGPGTPRPLNRPKVSLSAPMTTNGLPESTDSKEANLQQNEEKNHSDSSTSESEVSSVSPLKNKHPDEDAVEAEGHEVKRLRFDKEGEVRETASQTTSSEISSVMVGETEASSSSQDKDKDSRCTRQHCTEEDEEEDEEEEEESFMTSREMIPERKNQEKESDDALTVNEETSEENNQMEESDVSQAEKDLLHSEGSENEGPVSSSSSDCRETEELVGSNSSKTGEILSESSMENDDEATEVTDEPMEQD
B6: Serine/threonine-protein phosphatase 4 regulatory subunit 3A (protein, UniProt Q6IN85 1-833)
chain: MTDTRRRVKVYTLNEDRQWDDRGTGHVSSGYVERLKGMSLLVRAESDGSLLLESKINPNTAYQKQQDTLIVWSEAENYDLALSFQEKAGCDEIWEKICQVQGKDPSVDITQDLVDESEEERFDDMSSPGLELPSCELSRLEEIAELVASSLPSPLRREKLALALENEGYIKKLLELFHVCEDLENIEGLHHLYEIIKGIFLLNRTALFEVMFSEECIMDVIGCLEYDPALSQPRKHREFLTKTAKFKEVIPISDPELKQKIHQTYRVQYIQDMVLPTPSVFEENMLSTLHSFIFFNKVEIVGMLQEDEKFLTDLFAQLTDEATDEEKRQELVNFLKEFCAFSQTLQPQNRDAFFKTLSNMGILPALEVILGMDDTQVRSAATDIFSYLVEYNPSMVREFVMQEAQQNDDVSKKLTEQKITSKDILLINLIIEHMICDTDPELGGAVQLMGLLRTLVDPENMLATANKTEKTEFLGFFYKHCMHVLTAPLLANTTEDKPSKDDFQTAQLLALVLELLTFCVEHHTYHIKNYIINKDILRRVLVLMASKHAFLALCALRFKRKIIGLKDEFYNRYIMKSFLFEPVVKAFLNNGSRYNLMNSAIIEMFEFIRVEDIKSLTAHVIENYWKALEDVDYVQTFKGLKLRFEQQRERQDNPKLDSMRSILRNHRYRRDARTLEDEEEMWFNTDEDDMEDGEAVVSPSDKTKNDDDIMDPISKFMERKKLKESEEKEVLLKTNLSGRQSPSFKLSLSSGTKTNLTSQSSTTNLPGSPGSPGSPGSPGSPGSVPKNTSQTAAITTKGGLVGLVDYPDDDEDDDEDEDKEDTLPLSKKAKFDS
B7: DnaJ homolog subfamily C member 1 (protein, UniProt Q8IXB1 33-793)
chain: DQDFYSLLGVSKTASSREIRQAFKKLALKLHPDKNPNNPNAHGDFLKINRAYEVLKDEDLRKKYDKYGEKGLEDNQGGQYESWNYYRYDFGIYDDDPEIITLERREFDAAVNSGELWFVNFYSPGCSHCHDLAPTWRDFAKEVDGLLRIGAVNCGDDRMLCRMKGVNSYPSLFIFRSGMAPVKYHGDRSKESLVSFAMQHVRSTVTELWTGNFVNSIQTAFAAGIGWLITFCSKGGDCLTSQTRLRLSGMLDGLVNVGWMDCATQDNLCKSLDITTSTTAYFPPGATLNNKEKNSILFLNSLDAKEIYLEVIHNLPDFELLSANTLEDRLAHHRWLLFFHFGKNENSNDPELKKLKTLLKNDHIQVGRFDCSSAPDICSNLYVFQPSLAVFKGQGTKEYEIHHGKKILYDILAFAKESVNSHVTTLGPQNFPANDKEPWLVDFFAPWCPPCRALLPELRRASNLLYGQLKFGTLDCTVHEGLCNMYNIQAYPTTVVFNQSNIHEYEGHHSAEQILEFIEDLMNPSVVSLTPTTFNELVTQRKHNEVWMVDFYSPWCHPCQVLMPEWKRMARTLTGLINVGSIDCQQYHSFCAQENVQRYPEIRFFPPKSNKAYHYHSYNGWNRDAYSLRIWGLGFLPQVSTDLTPQTFSEKVLQGKNHWVIDFYAPWCGPCQNFAPEFELLARMIKGKVKAGKVDCQAYAQTCQKAGIRAYPTVKFYFYERAKRNFQEEQINTRDAKAIAALISEKLETLRNQGKRNKDEL
B8: Serine/threonine-protein phosphatase 4 catalytic subunit (protein, UniProt P60510 1-307)
chain: MAEISDLDRQIEQLRRCELIKESEVKALCAKAREILVEESNVQRVDSPVTVCGDIHGQFYDLKELFRVGGDVPETNYLFMGDFVDRGFYSVETFLLLLALKVRYPDRITLIRGNHESRQITQVYGFYDECLRKYGSVTVWRYCTEIFDYLSLSAIIDGKIFCVHGGLSPSIQTLDQIRTIDRKQEVPHDGPMCDLLWSDPEDTTGWGVSPRGAGYLFGSDVVAQFNAANDIDMICRAHQLVMEGYKWHFNETVLTVWSAPNYCYRCGNVAAILELDEHLQKDFIIFEAAPQETRGIPSKKPVADYFL

These are yes or no findings as the source states them, for the method shown. In cells and extracts the contact can be indirect. Here binding means that the protein was enriched with, or labelled near, the bait; the list need not be complete.

The test concerns the target T7-2xStrep-JCV LT-Ag (JC virus (JCV)) (UniProt P03072). The experiment in a line: affinity purification with mass spectrometry.
Regarding B1, the binding result is reported as “binds”.

Turning to B2, the binding entry is “binds”.

With B3, the binding result is “binds”.

Take B4: the binding entry was “binds”.

On to B5, for which the binding result is listed as “binds”.

On to B6, for which the binding entry is on record as “binds”.

Turning to B7, the binding result is “binds”.

Consider B8, for which the binding entry is “binds”.
